PubChem BioAssay AID1259424, University of Nebraska Medical Center | 2018
In all, the deposit lists about 14,000 reagents; below is a part drawn at random. 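Higher correlation or smaller distance means closer resemblance to KSR1 loss; control wells, including KSR1 knockdowns, recur on many plates.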 Not all columns of the deposit are shown. No sequences are given here. Not stated in the record: the time to read-out.

Assay: 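Rank knockdowns across the genome by resemblance to the KSR1 depletion profile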 (primary screen)
Cells: human HCT116 colon cancer cells
Reagents: siRNA pool against human genes, 50 nM
Read-out: 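Log2 levels of six mRNAs (branched-DNA multiplex), adjusted by two reference genes and the non-targeting median, then scored against the average KSR1 knockdown pattern as Pearson r and euclidean distance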
Direction: mean correlation with KSR1 profile: higher = expression change more like KSR1 knockdown; mean distance from KSR1 profile: higher = expression change less like KSR1 knockdown

Target gene,PubChem SID,mean correlation with KSR1 profile,mean distance from KSR1 profile
LGALS9 (galectin 9),SID363993505,0.452,2.96
SRPRA (SRP receptor subunit alpha),SID363994279,-0.011,1.35
ACRV1 (acrosomal vesicle protein 1),SID363992839,-0.36,4.25
SLC41A2,SID364003804,0.603,1.55
POLR2J (RNA polymerase II subunit J),SID363997058,-0.0376,1.73
PYCARD (PYD and CARD domain containing),SID363998382,0.4,1.71
MAPRE3 (microtubule associated protein RP/EB family member 3),SID363998236,-0.758,2.06
XPO5 (exportin 5),SID364001804,0.313,1.66
MEAK7 (MTOR associated protein MEAK7),SID364001907,-0.557,4.45
MBNL2 (muscleblind like splicing regulator 2),SID364005012,-0.172,1.94
ATP6V0B (ATPase H+ transporting V0 subunit b),SID363995057,-0.531,5.66
ZNF394 (zinc finger protein 394),SID364003811,0.805,2.66
RSPH3 (radial spoke head 3),SID364003702,0.429,1.95
RESF1 (retroelement silencing factor 1),SID364000841,-0.484,1.76
PLA2G12A (phospholipase A2 group XIIA),SID364003470,0.68,1.77
"ALG6 (ALG6 alpha-1,3-glucosyltransferase)",SID363998449,-0.313,1.43
SH3BP1 (SH3 domain binding protein 1),SID364001283,-0.294,3.1
FAM234A (family with sequence similarity 234 member A),SID364003758,0.731,2.62
HSD17B2 (hydroxysteroid 17-beta dehydrogenase 2),SID363993357,0.494,2.23
PLXNA4 (plexin A4),SID364005114,-0.366,1.53
PPT2 (palmitoyl-protein thioesterase 2),SID363996083,-0.0533,2.43
HACE1,SID364001817,-0.607,2.6
STAB2 (stabilin 2),SID364000361,-0.601,2.74
UGGT1 (UDP-glucose glycoprotein glucosyltransferase 1),SID364001484,-0.492,2.59
RPA4 (replication protein A4),SID363998456,0.31,1.82
CTSS (cathepsin S),SID363995089,0.342,2.8
CYFIP2 (cytoplasmic FMR1 interacting protein 2),SID363998799,-0.621,1.84
PCYOX1 (prenylcysteine oxidase 1),SID364000014,0.23,2.29
TBX4 (T-box transcription factor 4),SID364001114,0.0392,1.72
ZIC4 (Zic family zinc finger 4),SID364003808,0.121,2.13
"POLA2 (DNA polymerase alpha 2, accessory subunit)",SID363993849,-0.413,2.97
AKIRIN2 (akirin 2),SID364000752,0.803,1.13
CYP1B1 (cytochrome P450 family 1 subfamily B member 1),SID363991441,0.642,1.24
VAMP5 (vesicle associated membrane protein 5),SID363997422,-0.327,1.44
"ITPRIP (inositol 1,4,5-trisphosphate receptor interacting protein)",SID364004371,0.648,1.49

4 entries from above, ordered by “mean distance from KSR1 profile”, high to low:
Target gene,PubChem SID,mean correlation with KSR1 profile,mean distance from KSR1 profile
"POLA2 (DNA polymerase alpha 2, accessory subunit)",SID363993849,-0.413,2.97
ZIC4 (Zic family zinc finger 4),SID364003808,0.121,2.13
TBX4 (T-box transcription factor 4),SID364001114,0.0392,1.72
AKIRIN2 (akirin 2),SID364000752,0.803,1.13

More entries follow:
Target gene,PubChem SID,mean correlation with KSR1 profile,mean distance from KSR1 profile
CD14 (CD14 molecule),SID363991909,-0.37,1.38
ZMAT1 (zinc finger matrin-type 1),SID364005129,0.209,2.29
TTYH3 (tweety family member 3),SID364005310,-0.437,2.04
MAGEA4 (MAGE family member A4),SID363993545,-0.149,3.69
SERPINB8 (serpin family B member 8),SID363993808,0.224,2.18
VWA8 (von Willebrand factor A domain containing 8),SID364005109,-0.396,2
ZNF347 (zinc finger protein 347),SID364004074,0.213,1.64
UBE2K (ubiquitin conjugating enzyme E2 K),SID363996255,0.58,1.24
DCUN1D2 (defective in cullin neddylation 1 domain containing 2),SID364000856,-0.412,2.55
MAEL (maelstrom spermatogenic transposon silencer),SID364004232,0.542,1.23
ORM2 (orosomucoid 2),SID363991926,-0.281,2.93
SLC40A1,SID363998957,-0.161,1.95
MGLL (monoglyceride lipase),SID363997972,-0.525,1.98
SPRY2 (sprouty RTK signaling antagonist 2),SID363996717,-0.405,1.91
TRAP1 (TNF receptor associated protein 1),SID364000013,0.231,2.71
"ST3GAL1 (ST3 beta-galactoside alpha-2,3-sialyltransferase 1)",SID363994182,0.387,3.07
DBT (dihydrolipoamide branched chain transacylase E2),SID363993131,0.391,1.36
GJA3 (gap junction protein alpha 3),SID364002245,-0.678,4.88
BDNF (brain derived neurotrophic factor),SID363992930,0.186,2.75
IL22 (interleukin 22),SID364001723,0.379,1.26
TRIM38 (tripartite motif containing 38),SID363997171,0.315,1.21
HOXC10 (homeobox C10),SID364000290,0.247,6.2
GLRX2 (glutaredoxin 2),SID363999839,0.038,2.72
MORF4L2 (mortality factor 4 like 2),SID363998203,-0.422,1.94
GNPDA1 (glucosamine-6-phosphate deaminase 1),SID363996374,0.00138,4.25
UBA1 (ubiquitin like modifier activating enzyme 1),SID363994450,0.0811,2.92
TAMALIN (trafficking regulator and scaffold protein tamalin),SID364004940,0.0143,2.2
DPYSL4 (dihydropyrimidinase like 4),SID363997237,0.281,1.38
